Measurements reported in PubChem BioAssay AID1159584 (Peter MacCallum Cancer Centre, 2016)

Test: 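Knock-downs that harm CDH1-null cells more than parental MCF10A cells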 (primary screen)
Cells: human MCF10A breast epithelial cells, parental and CDH1-null
Reagent: siRNA against human genes
Measured: 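ATP luminescence (CellTiter-Glo) viability per line relative to mean mock wells over all plates, and the ratio of CDH1-null to parental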
Reading the numbers: CDH1-null / parental viability ratio: higher = CDH1-null cells survive relatively better than parental
In all, the deposit lists about 18,000 reagents; below is an unselected part. Further read-outs or replicates are left out here. The record does not give: the amount of reagent, the time to read-out.

no.	gene symbol	CDH1-null / parental viability ratio
1	RAB5C	0.94
2	TIGD5	1
3	WNT7B	0.98
4	TP53	1.15
5	CLBA1	1.07
6	NUDT5	1.39
7	POU2AF2	0.98
8	HIPK3	0.73
9	WNT4	1.18
10	TLE2	0.8
11	SIGLEC6	0.61
12	SNCG	1.3
13	MSANTD1	1.11
14	LRIG2	1.3
15	EPHA10	1.19
16	H1-6	1.01
17	DYNC2I1	0.91
18	TTLL10	0.91
19	CTRB1	1.41
20	OR13C3	0.89
21	PEX19	0.88
22	GLIPR1L1	1.29
23	LILRA1	1.33
24	GGT2P	1.02
25	PDPN	1
26	YIPF5	0.99
27	GHITM	1.07
28	AFG1L	0.75
29	L1TD1	0.9
30	BHMT	0.92
31	SPATC1L	1.02
32	ZFC3H1	1.17
33	WBP2NL	0.9
34	HERC3	1.21
35	IBA57	1.02
36	AKR1C3	1.02
37	CCDC125	1.22
38	H2BC14	1.06
39	FAM43A	1.1
40	ENKUR	1.11
41	C10orf53	1.11
42	PLEKHH1	0.78
43	SOX21	1.21
44	NTNG1	0.86
45	GMIP	1.09
46	VWC2	0.68
47	FBXL21P	0.88
48	CYCS	0.75
49	CT83	0.63
50	SLC30A8	0.98
51	SPDYA	0.98
52	GAGE2C	0.65
53	ZNF133	1.26
54	CDC37	0.68
55	ARF6	0.85
56	ZNF75A	1.18
57	TTC27	0.8
58	C9orf153	0.62
59	LCE2D	1
60	C18orf32	1.14
61	MID2	0.96
62	AUP1	0.98
63	ANXA13	1.01
64	EFNA3	0.82
65	RABGEF1	0.78
66	TMEM143	0.91
67	TPRA1	0.71
68	ZNF296	1.05
69	SETD6	1.22
70	UHRF1	0.93
71	CITED4	1.2
72	NDUFAF4	1
73	KDM8	1.44
74	H3-4	1.22
75	KCNK7	1.28
76	ERMP1	1.31
77	ZNF207	1.4
78	MAP2K1	0.88
79	CIITA	0.96
80	PPIC	0.95
81	PIK3C2A	1
82	CEBPD	1.33
83	CCL5	0.87
84	GAN	0.81
85	MEPCE	0.92
86	CD44	1.15
87	OR8K1	1.06

Ordered by “CDH1-null / parental viability ratio” (lowest first): some entries from above.
gene symbol	CDH1-null / parental viability ratio
MAP2K1	0.88
PPIC	0.95
CIITA	0.96
PIK3C2A	1
H3-4	1.22
KCNK7	1.28
ERMP1	1.31
ZNF207	1.4
